Test [1] has as its target T1, NRP-1-Fc construct (extracellular domain portion of murine NRP-1 fused to the Fc portion of human IgG1) (mouse; human) (UniProt P97333).
T1 sequence: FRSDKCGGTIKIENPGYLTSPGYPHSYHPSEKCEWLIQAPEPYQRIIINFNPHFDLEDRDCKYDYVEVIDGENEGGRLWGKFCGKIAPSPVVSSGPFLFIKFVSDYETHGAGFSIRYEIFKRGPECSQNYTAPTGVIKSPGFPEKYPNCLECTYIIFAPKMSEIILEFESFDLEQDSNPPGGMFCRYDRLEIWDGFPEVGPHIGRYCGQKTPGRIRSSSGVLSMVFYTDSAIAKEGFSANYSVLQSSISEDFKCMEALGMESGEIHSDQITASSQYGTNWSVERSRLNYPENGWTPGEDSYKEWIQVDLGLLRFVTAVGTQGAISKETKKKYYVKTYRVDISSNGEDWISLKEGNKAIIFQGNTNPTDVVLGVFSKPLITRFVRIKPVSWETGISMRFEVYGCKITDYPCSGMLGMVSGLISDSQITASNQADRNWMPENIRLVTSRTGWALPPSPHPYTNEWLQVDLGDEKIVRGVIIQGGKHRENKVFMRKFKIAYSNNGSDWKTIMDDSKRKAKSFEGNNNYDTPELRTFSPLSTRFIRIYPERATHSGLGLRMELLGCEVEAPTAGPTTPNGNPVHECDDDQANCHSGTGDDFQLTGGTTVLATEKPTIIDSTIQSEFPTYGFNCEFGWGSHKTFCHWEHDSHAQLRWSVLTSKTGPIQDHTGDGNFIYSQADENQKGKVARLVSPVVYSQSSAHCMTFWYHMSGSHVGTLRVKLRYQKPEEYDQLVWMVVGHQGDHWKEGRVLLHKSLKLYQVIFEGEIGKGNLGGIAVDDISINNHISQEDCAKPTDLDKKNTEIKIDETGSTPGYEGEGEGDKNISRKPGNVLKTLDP
Nature of the test: co-precipitation of 35S-labeled VEGF165 medium with NRP-1-IgG, with and without heparin.

Sequences of proteins named here, by UniProt entry; tags and fusion partners are left off. A change or cut given only in a name is not applied to a line headed by its entry. A line that says so, or that is headed by a name, gives the form on record, which may keep a tag or linker.
VEGF165 (P15692, form named): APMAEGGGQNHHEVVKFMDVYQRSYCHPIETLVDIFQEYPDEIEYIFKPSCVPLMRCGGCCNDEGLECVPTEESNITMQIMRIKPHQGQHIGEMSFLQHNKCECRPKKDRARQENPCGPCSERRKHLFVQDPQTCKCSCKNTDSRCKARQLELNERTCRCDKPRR
UniProt P49767: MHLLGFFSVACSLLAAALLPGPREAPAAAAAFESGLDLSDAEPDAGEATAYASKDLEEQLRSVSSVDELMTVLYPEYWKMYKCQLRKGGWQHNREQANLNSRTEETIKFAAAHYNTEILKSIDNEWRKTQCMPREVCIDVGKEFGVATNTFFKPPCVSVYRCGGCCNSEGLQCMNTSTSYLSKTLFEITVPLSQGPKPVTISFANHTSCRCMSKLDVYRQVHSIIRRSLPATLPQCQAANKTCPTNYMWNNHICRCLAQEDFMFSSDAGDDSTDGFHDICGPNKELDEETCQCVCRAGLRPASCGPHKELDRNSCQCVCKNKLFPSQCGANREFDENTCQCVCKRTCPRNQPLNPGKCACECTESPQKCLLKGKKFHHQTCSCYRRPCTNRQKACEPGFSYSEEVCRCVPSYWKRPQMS

Test [2] concerns the target T1, NRP-1-Fc construct (extracellular domain portion of murine NRP-1 fused to the Fc portion of human IgG1) (mouse; human). Nature of the test: co-precipitation of 35S-labeled VEGF-C medium with NRP-1-IgG on Protein A-Sepharose, SDS-PAGE.
For test [3], the target named is hNRP-2 a17-IgG fusion protein (extracellular domain of human neuropilin-2, a17 isoform, fused to the human IgG1 Fc tail) (human) [IgG part: P01857]. Nature of the test: co-precipitation of 35S-labeled VEGF-C medium with hNRP-2 a17-IgG on Protein A-Sepharose, SDS-PAGE.

No constants are given. Whether binding was seen depends on the method and setting. In cells and extracts the contact can be indirect. Some results given as binding are weak or reduced against the parent protein; the word gives no strength. For part of these data: Where a sequence is shown, tags or fusion partners need not be part of it.

On to “VEGF165 (from UniProt P15692 27-191) (ligand)”, for which the binding entry in test [1] is given as “binds”.
Consider “VEGF-C 29 kD isoform (partially processed form of human VEGF-C) (from UniProt P49767 32-227) (ligand)”, for which the binding entry in test [2] and in test [3] was “binds” in each case.

The values are drawn from patent US20080057028A1.
